Where a chain is given by its changes, count along the chain named. Results are given in words; binding and its absence hold for the method and conditions named. Some binding calls cover weakened binding; strength is not graded here. Tags and fused reporters may be left off the sequences shown.
Tests used:
Assay in all cases: two-hybrid; yeast, Matchmaker GAL4 system; senataxin 1–650 baits in pGBKT7-BD, human brain library preys in pGADT7-Rec; library screens by mating, retest by mating and by co-transformation with patching of serial dilutions on Leu-/Trp-/His- medium with 3 mM 3-AT
[1] = target: T1, BD-SETX-W305C, senataxin amino-terminal bait with the AOA2 mutation W305C (human) (UniProt Q7Z333)
T1 sequence: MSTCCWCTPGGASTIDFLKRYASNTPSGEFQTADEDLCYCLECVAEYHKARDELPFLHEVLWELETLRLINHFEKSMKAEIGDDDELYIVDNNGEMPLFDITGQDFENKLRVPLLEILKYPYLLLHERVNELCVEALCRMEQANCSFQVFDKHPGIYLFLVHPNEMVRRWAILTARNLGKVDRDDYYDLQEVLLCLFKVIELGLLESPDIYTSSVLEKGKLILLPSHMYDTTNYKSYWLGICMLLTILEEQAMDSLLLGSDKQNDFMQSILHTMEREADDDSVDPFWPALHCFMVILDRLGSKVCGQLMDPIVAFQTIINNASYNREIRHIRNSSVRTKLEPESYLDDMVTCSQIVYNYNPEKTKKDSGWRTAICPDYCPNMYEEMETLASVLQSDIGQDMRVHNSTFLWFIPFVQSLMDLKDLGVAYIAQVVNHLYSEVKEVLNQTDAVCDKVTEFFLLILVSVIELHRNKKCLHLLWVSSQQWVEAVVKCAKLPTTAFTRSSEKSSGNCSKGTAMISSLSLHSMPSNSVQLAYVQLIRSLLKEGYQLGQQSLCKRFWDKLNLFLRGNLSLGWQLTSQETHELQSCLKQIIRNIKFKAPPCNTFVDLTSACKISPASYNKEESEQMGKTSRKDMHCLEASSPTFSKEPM

The chains behind the UniProt entries cited, without tags or fusion partners. Residues count along the entry.
UniProt Q12873, residues 1852-2000: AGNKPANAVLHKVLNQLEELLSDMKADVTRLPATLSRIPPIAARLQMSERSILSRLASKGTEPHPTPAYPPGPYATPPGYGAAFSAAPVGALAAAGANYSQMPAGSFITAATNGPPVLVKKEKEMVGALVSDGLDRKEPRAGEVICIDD
UniProt Q06265, residues 158-439: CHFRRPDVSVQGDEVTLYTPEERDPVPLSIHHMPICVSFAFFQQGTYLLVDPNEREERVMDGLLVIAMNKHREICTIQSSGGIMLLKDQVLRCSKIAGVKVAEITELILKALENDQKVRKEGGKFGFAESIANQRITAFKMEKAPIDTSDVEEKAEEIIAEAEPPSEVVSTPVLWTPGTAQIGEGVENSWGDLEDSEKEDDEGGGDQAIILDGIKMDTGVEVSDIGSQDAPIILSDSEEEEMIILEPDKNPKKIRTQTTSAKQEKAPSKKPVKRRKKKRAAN
UniProt Q13569, residues 74-410: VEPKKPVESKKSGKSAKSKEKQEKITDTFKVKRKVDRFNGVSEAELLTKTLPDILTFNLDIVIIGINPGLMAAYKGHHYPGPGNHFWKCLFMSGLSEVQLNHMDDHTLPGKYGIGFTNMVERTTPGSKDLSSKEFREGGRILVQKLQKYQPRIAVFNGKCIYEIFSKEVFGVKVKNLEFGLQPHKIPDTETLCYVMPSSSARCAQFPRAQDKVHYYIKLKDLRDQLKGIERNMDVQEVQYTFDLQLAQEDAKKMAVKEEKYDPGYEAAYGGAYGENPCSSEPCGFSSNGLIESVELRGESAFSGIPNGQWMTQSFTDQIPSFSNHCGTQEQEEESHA

[2] = target: T2, BD-SETX-wt, wild type senataxin residues 1–650 as yeast two-hybrid bait (human) (UniProt Q7Z333)
T2 sequence: T1 sequence with C305W

[3] = target: T3, BD-SETX-L389S, senataxin residues 1–650 with the ALS4 L389S mutation as yeast two-hybrid bait (human) (UniProt Q7Z333)
T3 sequence: T1 sequence with C305W, L389S

Measured: binding

CHD3, chromodomain helicase DNA-binding protein 3, library prey clone (1818–1967) (from UniProt Q12873-2 1818-1966) (domain or fragment)
binds: all assays above

EXOSC9, exosome component 9, library prey clone (158–440 ter) (from UniProt Q06265-1 158-439) (domain or fragment)
binds: all assays above

Sumo, small ubiquitin-like modifier, library prey clone (1–102 tot) (from UniProt P63165-1 1-101)
binds: all assays above

TDG, G/T mismatch-thymine DNA glycosylase, library prey clone (74–411 ter) (from UniProt Q13569 74-410) (domain or fragment)
binds: all assays above

From article PMC3823977
